According to PubChem BioAssay AID2685 (National Center for Advancing Translational Sciences (NCATS), 2010):
This is one part of the list. These are further read-outs of the screen, such as a control signal, another cell line or another target. No call is given for them. Most of these compounds were active or inconclusive in the main read-out, so they are no random draw. Potencies come from curve fits of mixed quality, noted in brackets.

Experiment: qHTS Assay for Lipid Storage Modulators in Drosophila S3 Cells;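 on cell number change: cells counted by Cell Tracker Red CMTPX staining in the red channel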
Details: BODIPY lipid droplet fluorescence, 18-24 h; for cell number change: measured here: cell count max response, cells fed with added oleic acid
Procedure, shortened: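 Drosophila S3 cells loaded with oleic acid (400 uM, as added) and compounds at several concentrations; lipid droplets imaged by 488-nm laser-scanning cytometry, 500–530 nm intensity and object ratio to cell channel. Percent activity normalized to 20 uM Triacsin C.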

[1] = measured here: cell number channel AC50, cells fed with added oleic acid
[2] = measured here: lipid fluorescence (Fed channel) AC50, cells fed with added oleic acid

SMILES	cell number change	AC50 [1]	AC50 [2]
COC(=O)c1cc2c(cc1Cl)N1CCCCCC1=NS2(=O)=O	-24.5%	2.59 µM [falling, single point]	–
O=[N+]([O-])c1ccc(S(=O)(=O)N(CC(O)CN2CCCCC2)c2ccccc2)cc1 (stereo not given)	20.5%	–	0.164 µM [rising, full curve]
Cn1ccnc1C(=O)c1ccc(NN)c([N+](=O)[O-])c1	44.5%	18.4 µM [rising, single point]	–
CCc1cccc2c(C(=O)COC(=O)c3nccnc3N)c[nH]c12	-3.58%	–	–
Fc1cccc(CNc2ncnc3ccc(-c4ccoc4)cc23)c1	26.3%	–	–
CCOC(=O)C1CCC(CN(Cc2ccccc2)S(=O)(=O)c2ccc([N+](=O)[O-])cc2)CC1 (stereo not given)	16.4%	1.84 µM [rising, full curve, poor fit]	–
CCSc1nc(C)cc(C)c1S(=O)(=O)c1ccccc1C	-50.9%	0.164 µM [falling, full curve]	8.2 µM [falling, partial curve, poor fit]
CCN1C(=O)[C@H]2[C@@H](c3ccc(C)cc3)N3C(=O)N(c4cccc(Cl)c4)C(=O)[C@@]3(Cc3ccc(Cl)cc3)[C@H]2C1=O	–	–	14.6 µM [rising, partial curve]
COC(=O)c1sccc1NC(=O)c1cccc(OC)c1	–	3.26 µM [rising, partial curve]	3.66 µM [rising, partial curve]
Cc1cc(=O)n2ncnc2n1COCCO	-14.4%	–	20.6 µM [falling, partial curve, poor fit]
CN(C)/C=C/c1[nH]c(=O)[nH]c(=O)c1[N+](=O)[O-]	20.9%	–	18.4 µM [rising, single point]
O=C(COc1ccc2ccccc2c1)NCCc1ccc2c(c1)OCCO2	47.4%	2.31 µM [rising, partial curve]	9.2 µM [rising, partial curve, poor fit]
O=C(O)c1ccc(Cl)c(S(=O)(=O)N2CCCCCC2)c1	14.4%	2.31 µM [falling, partial curve]	20.6 µM [falling, single point]
Cc1ccc(NC(=O)c2ccc(OCc3c(C)noc3C)cc2)c(C)c1	25.7%	–	10.3 µM [falling, partial curve]
O=C(COC(=O)c1ccc2c(c1)OCO2)Nc1cccc(F)c1	4.69%	–	13 µM [rising, partial curve]
Cc1ccc(-c2nn(-c3cc(N4CCNCC4)ccc3[N+](=O)[O-])c(=O)c3ccccc23)cc1	-30.7%	2.31 µM [falling, single point]	–
Cc1cc(C)cc(NC(=O)COC(=O)CCn2c(C)csc2=O)c1	2.13%	–	6.51 µM [rising, single point]
CC1CCN(c2ccc3c(c2)S(=O)(=O)c2cccc(C(=O)NCc4ccc(F)cc4)c2C3=O)CC1	-34.7%	6.51 µM [falling, partial curve, poor fit]	2.31 µM [falling, partial curve]
CCCCN(CCO)c1ncnc2sc(-c3ccccc3)cc12	14.3%	–	0.82 µM [rising, full curve, poor fit]
Cc1ccc(S(=O)(=O)NNC(=O)c2sc(NS(=O)(=O)c3ccccc3)nc2C)cc1	12.8%	–	–

SMILES	cell number change	AC50 [1]	AC50 [2]
COCCCNC(=O)Cn1c(=O)n(CC(=O)N2CCCCC2)c(=O)c2sccc21	–	–	29.1 µM [falling, single point]
Cn1c(N)c(C(=O)COC(=O)c2cc(-c3ccccc3)nc3ccccc23)c(=O)n(Cc2ccccc2)c1=O	-0.83%	–	1.84 µM [rising, full curve]
CCOc1ccc(N(CC(=O)NCCSCc2ccc(C)cc2)S(C)(=O)=O)cc1	-23.1%	–	6.51 µM [falling, single point]
Cn1ncc(C#N)c1/N=C/N1CCCC1	-61.9%	3.66 µM [falling, full curve]	3.66 µM [falling, full curve]
COc1ccc(CCN=C(N)NS(=O)(=O)c2cccs2)cc1	50%	–	23.1 µM [rising, single point]
CCCn1c(-c2ccccc2)cc(SC)c(C#N)c1=O	38.7%	11.6 µM [rising, single point]	6.51 µM [rising, single point]
Cn1cnc2cc(NS(=O)(=O)c3ccc(Br)cc3)ccc21	18.5%	0.517 µM [rising, full curve, poor fit]	16.4 µM [rising, partial curve]
Cc1ccc(OCC(=O)Nc2ccc(N3CCOCC3)cc2)c([N+](=O)[O-])n1	18.3%	–	3.26 µM [falling, single point]
O=C(Nc1cccc(Cl)c1)C1CCCN(S(=O)(=O)c2ccc(F)cc2)C1 (stereo not given)	23.9%	0.731 µM [falling, single point]	–
COc1ccc(NC(=O)CN2CCN(CC(=O)Nc3ccccc3F)CC2)c(OC)c1	–	6.51 µM [rising, single point]	–
O=C(NCc1cccnc1)NC(=O)c1ccc(Cl)cc1	–	–	1.12 µM [rising, full curve, poor fit]
FC(F)(F)c1cnc(C(c2ccccn2)c2ncn[nH]2)c(Cl)c1 (stereo not given)	13.6%	0.00461 µM [rising, full curve, poor fit]	–
O=C(C#Cc1ccccc1)Nc1cccc(F)c1	–	–	0.82 µM [falling, full curve]
O=C(Cn1cncn1)N/N=C/c1cc([N+](=O)[O-])ccc1O	-1.58%	–	0.164 µM [falling, full curve, poor fit]
CS(=O)(=O)N1CCN(C(=O)CSc2ccccc2)CC1	-4.11%	–	–
CC(C)CNS(=O)(=O)c1ccc(CCC(=O)Nc2cc(Cl)ccc2Oc2ccccc2)cc1	16.9%	–	–
COc1ccc(NC(=O)c2ccc3c(=O)n4c(nc3c2)CCCCC4)cc1	-95.4%	29.1 µM [falling, single point]	29.1 µM [falling, single point]
CCOc1ccc(C(C)=O)cc1CN1C(=O)C(=O)N(CC)C1=O	41.2%	29.1 µM [rising, single point]	–
O=C(NCc1ccc2c(c1)OCO2)c1c(O)nc2sccn2c1=O	155%	4.61 µM [falling, single point]	4.61 µM [falling, single point]
COC(=O)c1ccccc1N1C(=O)C2C(C1=O)[C@H]1C=C[C@@H]2C1 (stereo not given in full)	7.67%	–	29.1 µM [rising, single point]

3 entries already listed, sorted by molecular weight, smallest number first:
SMILES	cell number change	AC50 [1]	AC50 [2]
Cn1ccnc1C(=O)c1ccc(NN)c([N+](=O)[O-])c1	44.5%	18.4 µM [rising, single point]	–
COC(=O)c1cc2c(cc1Cl)N1CCCCCC1=NS2(=O)=O	-24.5%	2.59 µM [falling, single point]	–
Cn1c(N)c(C(=O)COC(=O)c2cc(-c3ccccc3)nc3ccccc23)c(=O)n(Cc2ccccc2)c1=O	-0.83%	–	1.84 µM [rising, full curve]

Carrying on:

SMILES	cell number change	AC50 [1]	AC50 [2]
COc1cc(CNn2nnnc2N)ccc1OCc1c(Cl)cccc1Cl	-53.1%	29.1 µM [falling, single point]	29.1 µM [rising, single point]
Cc1cccc(C)c1NC(=O)CN1CCN(CCCC(c2ccc(F)cc2)c2ccc(F)cc2)CC1	-55.7%	29.1 µM [falling, single point]	4.61 µM [falling, single point]
O=C(NNC(=O)C1CC1)c1ccccc1[N+](=O)[O-]	-0.283%	–	–
COc1ccccc1NC(=O)Nc1sccc1-c1nc2ccccc2s1	-6.58%	–	29.1 µM [falling, single point]
CCc1ccc(CN(C)CC(=O)Nc2ccc3c(c2)CCC3)cc1	-46.5%	0.58 µM [falling, full curve]	0.82 µM [falling, full curve]
COc1cccc(-c2nc3c(c(SCC(=O)N4CCOCC4)n2)Cc2c(CO)cnc(C)c2O3)c1	–	–	0.58 µM [falling, full curve]
COC(=O)C1CCN(C(=O)C2CCC(=O)N(CCCc3ccccc3)C2)CC1 (stereo not given)	17.2%	–	16.4 µM [falling, single point]
C=CCC(CC(O)COCCC)C(=O)NNC(=S)Nc1ccccc1 (stereo not given)	7.25%	–	2.06 µM [rising, partial curve]
CCOC(=O)C1=C(C)OC(N)=C(C#N)C1c1cc2c(cc1Br)OCO2 (stereo not given)	-4.13%	–	2.06 µM [rising, full curve]
CCOC(=O)CSc1nnc(NC(=O)c2cc([N+](=O)[O-])cc([N+](=O)[O-])c2)s1	-33.3%	32.6 µM [falling, single point]	–
CC1C/C(=N\NC(N)=S)c2cc(Cl)ccc2S1 (stereo not given)	9.56%	–	–
CN1CCc2c(sc(/N=C/c3ccco3)c2C(N)=O)C1	-2.03%	–	–
O=C(c1ccc(Sc2ccc(F)cc2)c([N+](=O)[O-])c1)N1CCOCC1	29.4%	–	–
CCc1nnc(NS(=O)(=O)c2ccc(NCc3cc(Cl)ccc3O)cc2)s1	3.85%	–	0.13 µM [rising, full curve]
O=C1c2ccccc2C(=O)c2c1cccc2N(CCO)CCO	1.94%	–	29.1 µM [falling, single point]
COc1ccc(CCNC(=O)COc2coc(CN3c4ccccc4CC3C)cc2=O)cc1OC (stereo not given)	-20.1%	–	29.1 µM [falling, single point]
COc1ccc(CNC(=O)N2CCN(c3ccc(F)cc3)CC2)cc1Cl	-45.4%	0.103 µM [falling, full curve, poor fit]	23.1 µM [falling, single point]
CC(=O)Oc1cccc(C(=O)Nc2ccc(NC(=O)c3cccs3)cc2)c1	-9.7%	–	6.51 µM [falling, full curve, poor fit]
COCCN(CCOC)S(=O)(=O)c1ccc(/C(O)=C(\C#N)c2nc3ccccc3[nH]2)cc1	24.6%	–	–

Gathered by group, those above with a furan ring, fused or not.
SMILES	cell number change	AC50 [1]	AC50 [2]
Fc1cccc(CNc2ncnc3ccc(-c4ccoc4)cc23)c1	26.3%	–	–
CN1CCc2c(sc(/N=C/c3ccco3)c2C(N)=O)C1	-2.03%	–	–
